From the supplement of paper PMC12595434, “Development of retinoid nuclear receptor pathway antagonists through targeting aldehyde dehydrogenase 1A3” (iScience, 2025)
This is one part of the list. The data scatter; read single values as rough.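 Tm was set to 64 °C where no melting was found, and many curves are irregular.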

Sequences of proteins named here, by UniProt entry; tags and fusion partners are left off. A change or cut given only in a name is not applied to a line headed by its entry.
UniProt P56589: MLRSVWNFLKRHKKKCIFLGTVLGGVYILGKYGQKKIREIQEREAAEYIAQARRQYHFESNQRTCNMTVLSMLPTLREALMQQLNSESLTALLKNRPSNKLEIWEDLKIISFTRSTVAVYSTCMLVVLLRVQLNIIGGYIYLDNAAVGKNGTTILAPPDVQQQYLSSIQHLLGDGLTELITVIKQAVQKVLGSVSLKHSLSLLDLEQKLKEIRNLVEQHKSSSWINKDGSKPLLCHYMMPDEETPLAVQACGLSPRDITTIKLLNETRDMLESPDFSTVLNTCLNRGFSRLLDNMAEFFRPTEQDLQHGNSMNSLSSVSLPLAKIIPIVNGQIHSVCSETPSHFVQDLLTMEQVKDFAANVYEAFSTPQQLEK
UniProt P55884, whole entry: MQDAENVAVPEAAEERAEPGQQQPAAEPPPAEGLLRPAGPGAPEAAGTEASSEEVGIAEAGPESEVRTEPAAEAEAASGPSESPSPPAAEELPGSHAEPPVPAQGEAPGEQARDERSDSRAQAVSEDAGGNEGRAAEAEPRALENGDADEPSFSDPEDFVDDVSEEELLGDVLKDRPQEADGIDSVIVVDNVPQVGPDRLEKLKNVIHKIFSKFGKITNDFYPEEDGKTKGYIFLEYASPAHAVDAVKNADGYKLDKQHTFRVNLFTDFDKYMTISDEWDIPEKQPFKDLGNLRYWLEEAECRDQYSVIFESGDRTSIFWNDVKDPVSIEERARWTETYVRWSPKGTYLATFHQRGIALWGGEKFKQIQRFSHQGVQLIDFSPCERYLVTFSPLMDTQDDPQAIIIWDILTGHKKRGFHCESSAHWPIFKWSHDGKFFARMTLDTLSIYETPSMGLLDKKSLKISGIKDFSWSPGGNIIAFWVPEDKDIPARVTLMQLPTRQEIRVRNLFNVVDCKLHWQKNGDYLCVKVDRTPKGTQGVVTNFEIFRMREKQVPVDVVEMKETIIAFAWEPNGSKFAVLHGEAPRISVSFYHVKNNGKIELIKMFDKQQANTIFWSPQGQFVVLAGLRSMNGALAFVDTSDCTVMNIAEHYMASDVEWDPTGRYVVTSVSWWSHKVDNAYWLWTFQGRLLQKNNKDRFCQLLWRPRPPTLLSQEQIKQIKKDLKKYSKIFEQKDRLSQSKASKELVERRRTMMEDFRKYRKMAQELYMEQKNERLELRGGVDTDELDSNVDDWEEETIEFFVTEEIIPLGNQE
UniProt P60228, whole entry: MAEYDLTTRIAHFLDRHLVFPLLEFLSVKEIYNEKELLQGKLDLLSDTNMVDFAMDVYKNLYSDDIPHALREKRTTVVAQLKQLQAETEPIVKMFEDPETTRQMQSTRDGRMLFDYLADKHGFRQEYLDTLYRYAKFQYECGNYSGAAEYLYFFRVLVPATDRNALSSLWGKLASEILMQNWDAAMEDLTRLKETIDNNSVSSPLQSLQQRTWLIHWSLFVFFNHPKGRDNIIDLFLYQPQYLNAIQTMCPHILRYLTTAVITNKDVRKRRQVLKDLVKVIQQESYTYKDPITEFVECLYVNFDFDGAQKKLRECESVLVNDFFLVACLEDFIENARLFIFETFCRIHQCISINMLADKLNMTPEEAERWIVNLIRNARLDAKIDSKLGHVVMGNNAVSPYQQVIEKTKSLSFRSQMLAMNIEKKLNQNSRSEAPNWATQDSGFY
UniProt P55786: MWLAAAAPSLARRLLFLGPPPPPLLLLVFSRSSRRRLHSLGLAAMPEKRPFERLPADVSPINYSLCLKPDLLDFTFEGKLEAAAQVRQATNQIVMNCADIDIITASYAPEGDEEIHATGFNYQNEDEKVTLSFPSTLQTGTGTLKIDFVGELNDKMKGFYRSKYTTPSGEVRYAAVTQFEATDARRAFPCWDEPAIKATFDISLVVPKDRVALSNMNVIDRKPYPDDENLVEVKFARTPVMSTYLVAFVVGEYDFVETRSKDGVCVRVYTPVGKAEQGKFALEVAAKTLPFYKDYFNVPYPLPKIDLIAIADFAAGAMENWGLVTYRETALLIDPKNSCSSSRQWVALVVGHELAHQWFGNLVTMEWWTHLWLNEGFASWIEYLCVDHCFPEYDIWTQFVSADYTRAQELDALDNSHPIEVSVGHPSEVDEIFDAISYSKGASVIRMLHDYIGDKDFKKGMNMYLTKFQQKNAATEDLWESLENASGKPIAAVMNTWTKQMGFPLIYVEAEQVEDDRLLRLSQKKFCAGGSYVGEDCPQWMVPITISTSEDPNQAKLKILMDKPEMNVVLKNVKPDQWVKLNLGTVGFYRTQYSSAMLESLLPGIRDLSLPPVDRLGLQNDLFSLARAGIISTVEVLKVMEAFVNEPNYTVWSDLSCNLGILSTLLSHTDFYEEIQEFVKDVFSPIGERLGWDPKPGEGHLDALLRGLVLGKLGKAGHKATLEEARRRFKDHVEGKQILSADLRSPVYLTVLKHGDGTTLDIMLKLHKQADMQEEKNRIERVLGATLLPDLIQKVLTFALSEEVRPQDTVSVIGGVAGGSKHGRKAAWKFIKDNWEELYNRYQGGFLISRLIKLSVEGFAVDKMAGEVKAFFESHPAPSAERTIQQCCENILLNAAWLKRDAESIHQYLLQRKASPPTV
UniProt P54098: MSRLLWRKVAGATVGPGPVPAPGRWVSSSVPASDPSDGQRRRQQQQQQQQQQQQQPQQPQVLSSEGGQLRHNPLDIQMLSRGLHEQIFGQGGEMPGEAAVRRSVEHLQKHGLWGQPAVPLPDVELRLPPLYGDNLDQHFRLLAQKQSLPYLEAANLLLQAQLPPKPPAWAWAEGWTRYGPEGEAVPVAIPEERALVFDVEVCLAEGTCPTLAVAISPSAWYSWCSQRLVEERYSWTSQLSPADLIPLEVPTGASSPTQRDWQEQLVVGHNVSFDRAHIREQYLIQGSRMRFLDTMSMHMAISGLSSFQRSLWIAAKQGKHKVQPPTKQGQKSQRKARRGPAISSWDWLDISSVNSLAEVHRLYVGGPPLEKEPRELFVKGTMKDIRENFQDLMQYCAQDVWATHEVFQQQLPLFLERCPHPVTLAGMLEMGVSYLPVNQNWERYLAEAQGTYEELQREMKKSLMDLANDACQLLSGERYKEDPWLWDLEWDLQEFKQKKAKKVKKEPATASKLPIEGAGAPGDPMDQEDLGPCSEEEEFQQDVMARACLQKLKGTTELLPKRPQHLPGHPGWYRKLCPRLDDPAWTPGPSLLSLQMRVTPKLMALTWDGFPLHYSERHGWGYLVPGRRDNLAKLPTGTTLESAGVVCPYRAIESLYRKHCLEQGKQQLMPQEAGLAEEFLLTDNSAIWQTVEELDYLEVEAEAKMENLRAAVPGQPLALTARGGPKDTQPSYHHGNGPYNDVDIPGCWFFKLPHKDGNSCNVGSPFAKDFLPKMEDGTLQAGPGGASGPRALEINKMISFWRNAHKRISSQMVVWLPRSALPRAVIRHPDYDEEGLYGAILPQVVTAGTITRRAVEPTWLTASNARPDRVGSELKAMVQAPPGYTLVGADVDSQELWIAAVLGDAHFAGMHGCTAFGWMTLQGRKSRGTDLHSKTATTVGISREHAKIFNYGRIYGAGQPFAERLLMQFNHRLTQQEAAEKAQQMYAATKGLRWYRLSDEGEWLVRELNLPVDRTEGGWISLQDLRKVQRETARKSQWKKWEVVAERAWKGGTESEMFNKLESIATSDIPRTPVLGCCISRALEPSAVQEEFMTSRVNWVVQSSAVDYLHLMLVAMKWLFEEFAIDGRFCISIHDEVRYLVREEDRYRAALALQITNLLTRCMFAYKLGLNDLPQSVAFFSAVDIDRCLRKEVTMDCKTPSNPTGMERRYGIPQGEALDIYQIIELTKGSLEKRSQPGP
UniProt P57729: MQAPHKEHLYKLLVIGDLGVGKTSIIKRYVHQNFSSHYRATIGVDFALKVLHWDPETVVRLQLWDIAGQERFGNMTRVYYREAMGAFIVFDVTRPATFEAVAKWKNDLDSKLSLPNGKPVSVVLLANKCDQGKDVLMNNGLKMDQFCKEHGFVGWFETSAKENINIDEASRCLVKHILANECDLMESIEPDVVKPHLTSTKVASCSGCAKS
UniProt P54132: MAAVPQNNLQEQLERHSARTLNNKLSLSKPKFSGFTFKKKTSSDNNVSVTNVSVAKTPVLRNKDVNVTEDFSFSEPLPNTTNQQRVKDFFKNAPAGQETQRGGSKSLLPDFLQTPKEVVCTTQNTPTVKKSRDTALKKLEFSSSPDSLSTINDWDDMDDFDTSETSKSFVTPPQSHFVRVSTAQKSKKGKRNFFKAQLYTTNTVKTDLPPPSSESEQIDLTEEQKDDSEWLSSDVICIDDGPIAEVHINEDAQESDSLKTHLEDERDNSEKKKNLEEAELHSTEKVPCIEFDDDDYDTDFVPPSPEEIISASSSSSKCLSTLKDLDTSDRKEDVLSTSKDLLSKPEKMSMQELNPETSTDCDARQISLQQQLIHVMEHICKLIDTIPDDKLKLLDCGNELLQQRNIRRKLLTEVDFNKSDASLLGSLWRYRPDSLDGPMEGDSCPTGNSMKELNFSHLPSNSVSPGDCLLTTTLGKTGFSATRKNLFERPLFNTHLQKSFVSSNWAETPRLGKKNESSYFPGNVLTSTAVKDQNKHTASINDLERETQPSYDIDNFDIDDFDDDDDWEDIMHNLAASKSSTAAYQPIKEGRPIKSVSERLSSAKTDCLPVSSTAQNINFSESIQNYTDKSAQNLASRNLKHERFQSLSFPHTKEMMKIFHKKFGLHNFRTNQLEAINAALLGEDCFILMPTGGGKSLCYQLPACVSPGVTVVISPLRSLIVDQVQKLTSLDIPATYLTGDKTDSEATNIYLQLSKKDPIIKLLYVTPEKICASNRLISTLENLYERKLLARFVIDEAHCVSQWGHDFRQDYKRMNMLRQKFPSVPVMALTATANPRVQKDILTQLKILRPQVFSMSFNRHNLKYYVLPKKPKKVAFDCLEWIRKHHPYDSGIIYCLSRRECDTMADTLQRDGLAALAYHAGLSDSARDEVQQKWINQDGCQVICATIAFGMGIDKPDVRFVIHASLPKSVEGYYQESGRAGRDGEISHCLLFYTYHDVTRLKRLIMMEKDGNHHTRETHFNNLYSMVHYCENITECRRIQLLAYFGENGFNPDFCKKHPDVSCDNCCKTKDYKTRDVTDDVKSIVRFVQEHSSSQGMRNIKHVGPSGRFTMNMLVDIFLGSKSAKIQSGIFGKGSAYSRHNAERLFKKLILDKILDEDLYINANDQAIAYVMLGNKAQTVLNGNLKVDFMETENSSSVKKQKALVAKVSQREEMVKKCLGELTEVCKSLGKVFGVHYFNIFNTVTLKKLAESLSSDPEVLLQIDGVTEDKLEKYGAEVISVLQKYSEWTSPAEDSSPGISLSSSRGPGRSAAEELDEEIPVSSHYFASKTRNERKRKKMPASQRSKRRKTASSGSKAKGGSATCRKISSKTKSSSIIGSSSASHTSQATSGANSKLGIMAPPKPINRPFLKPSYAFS
UniProt P61081: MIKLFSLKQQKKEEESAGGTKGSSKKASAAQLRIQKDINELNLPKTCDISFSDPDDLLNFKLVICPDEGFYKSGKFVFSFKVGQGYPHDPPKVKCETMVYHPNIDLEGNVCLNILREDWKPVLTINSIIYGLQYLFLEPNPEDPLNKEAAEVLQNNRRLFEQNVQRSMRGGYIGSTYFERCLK
UniProt P68371, whole entry: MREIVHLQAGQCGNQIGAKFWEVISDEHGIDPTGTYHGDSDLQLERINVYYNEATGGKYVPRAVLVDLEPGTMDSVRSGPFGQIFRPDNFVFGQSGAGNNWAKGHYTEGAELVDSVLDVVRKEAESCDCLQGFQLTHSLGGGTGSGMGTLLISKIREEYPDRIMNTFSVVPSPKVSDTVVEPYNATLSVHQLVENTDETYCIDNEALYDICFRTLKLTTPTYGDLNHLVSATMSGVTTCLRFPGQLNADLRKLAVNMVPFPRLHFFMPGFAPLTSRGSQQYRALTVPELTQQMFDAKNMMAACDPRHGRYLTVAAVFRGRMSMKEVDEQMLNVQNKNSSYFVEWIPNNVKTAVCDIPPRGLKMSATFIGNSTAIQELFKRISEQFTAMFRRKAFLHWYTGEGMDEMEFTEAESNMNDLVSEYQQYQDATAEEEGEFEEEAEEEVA
UniProt P58335, whole entry: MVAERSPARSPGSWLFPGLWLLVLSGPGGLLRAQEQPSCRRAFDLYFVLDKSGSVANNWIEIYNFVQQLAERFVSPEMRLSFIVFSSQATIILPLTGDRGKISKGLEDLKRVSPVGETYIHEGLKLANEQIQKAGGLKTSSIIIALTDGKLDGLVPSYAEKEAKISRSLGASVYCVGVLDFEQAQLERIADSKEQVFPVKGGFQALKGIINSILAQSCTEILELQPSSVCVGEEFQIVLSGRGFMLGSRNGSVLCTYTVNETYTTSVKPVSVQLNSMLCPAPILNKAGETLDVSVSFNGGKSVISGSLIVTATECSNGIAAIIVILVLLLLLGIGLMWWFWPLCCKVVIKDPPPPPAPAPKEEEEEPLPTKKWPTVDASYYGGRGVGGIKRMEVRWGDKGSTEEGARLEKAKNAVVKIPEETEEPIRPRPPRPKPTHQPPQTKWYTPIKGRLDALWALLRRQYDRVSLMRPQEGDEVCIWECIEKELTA

Compound: CCc1cnccc1C(=O)Nc1cc2c(cc1F)NC(=O)CC2
Experiment: melting temperature shift (DMSO Tm minus MBE1-treated Tm) in cellular thermal proteome profiling; higher = less thermal stabilization by MBE1 (negative = stabilized by MBE1)
Conditions: A375

Target	melting temperature shift (MBE1 concentration: 100 nM) [°C]	melting temperature shift (MBE1 concentration: 1 uM) [°C]
HDAC4 (UniProt P56524)	-0.932	-1.52
HCCS (UniProt P53701)	-0.208	0.757
RAB5B (UniProt P61020)	0.157	0.374
RARS (UniProt P54136)	-0.635	-0.583
VBP1 (UniProt P61758)	-1.4	-1.38
PRPS1 (UniProt P60891)	-0.525	0.275
HNRNPK (UniProt P61978)	0.83	-0.134
UniProt P62072	-4.02	-3.37
SEC24C (UniProt P53992)	-1.01	-0.903
NUP107 (UniProt P57740)	1.03	0.556
ACTR1A (UniProt P61163)	-1.63	0.171
CASP7 (UniProt P55210)	-1.95	0.959
RPL23 (UniProt P62829)	0.311	0.782
SEC11A (UniProt P67812)	-0.315	-0.241
UniProt P62068	-0.527	0.00671
EPHB3 (UniProt P54753)	-0.0855	0.983
PEX3 (UniProt P56589)	0.314	-0.281
EIF6 (UniProt P56537)	-1.12	-0.647
VAMP7 (UniProt P51809)	-0.389	-0.273
ACTR3 (UniProt P61158)	-0.739	-0.372
RPL37A (UniProt P61513)	-0.69	0
CCNH (UniProt P51946)	0.147	0.287
UBE2G2 (UniProt P60604)	1.39	0.696
RPS29 (UniProt P62273)	5.63	-5.75

Full records from above. Order of values: melting temperature shift (MBE1 concentration: 100 nM) [°C]	melting temperature shift (MBE1 concentration: 1 uM) [°C]
PRPS1 (UniProt P60891) in the list: -0.525	0.275
HCCS (UniProt P53701) in the list: -0.208	0.757

More entries:

Target	melting temperature shift (MBE1 concentration: 100 nM) [°C]	melting temperature shift (MBE1 concentration: 1 uM) [°C]
GFER (UniProt P55789)	1.69	-5.2
MSH6 (UniProt P52701)	-0.5	-0.237
UniProt P63267	0.148	0.435
LAMB2 (UniProt P55268)	-0.805	0.318
SNX16 (UniProt P57768)	0.8	3.04
PGGT1B (UniProt P53609)	-0.496	0.134
TMEM33 (UniProt P57088)	-1.31	-1.05
SRP54 (UniProt P61011)	0.678	0.299
UniProt P62308	-1.81	0.914
EIF3B (UniProt P55884)	0.0978	-0.122
EIF3E (UniProt P60228)	-0.386	-0.132
RPL8 (UniProt P62917)	-1.04	0.708
NPEPPS (UniProt P55786)	-1.06	0.055
HNRNPM (UniProt P52272)	-0.231	-0.397
SUMO2 (UniProt P61956)	1.38	2.17
RPS11 (UniProt P62280)	0.134	15
POLG (UniProt P54098)	1.23	-0.183
ARF6 (UniProt P62330)	-1.09	0.0537
SNRPD2 (UniProt P62316)	-1.67	-0.996
UniProt P52739	-1.67	-0.942
UniProt P53677	0.397	-0.415
UniProt P54803	-2.48	-4.24
UniProt P63162	-1.2	-3.27
ALDH18A1 (UniProt P54886)	-0.235	0.44

Target	melting temperature shift (MBE1 concentration: 100 nM) [°C]	melting temperature shift (MBE1 concentration: 1 uM) [°C]
UniProt P57729	-0.625	0.104
UniProt P54132	-2.55	2.57
UBE2M (UniProt P61081)	-0.171	-1.06
RPS14 (UniProt P62263)	-0.154	11.9
HSPA2 (UniProt P54652)	-0.0201	-0.248
RPL30 (UniProt P62888)	-0.065	-0.366
UniProt P61326	0.0244	-1.66
UniProt P62314	-0.905	2.09
CTBP2 (UniProt P56545)	0.0604	0.456
UniProt P68371	-0.856	0.965
ACLY (UniProt P53396)	-0.174	0.202
YWHAG (UniProt P61981)	-1.42	-1.4
UBE2B (UniProt P63146)	-0.165	1.12
SNRPD3 (UniProt P62318)	-2.14	1.17
TPI1 (UniProt P60174)	-1.15	-0.302
PPP1CB (UniProt P62140)	-1.66	-0.105
HADHB (UniProt P55084)	0.959	0.318
UniProt P62760	-1.09	-0.428
RAP1GDS1 (UniProt P52306)	-1.15	-0.998
PPIA (UniProt P62937)	-0.677	-0.637
UniProt P58335	-2.33	-0.055
GRB2 (UniProt P62993)	0.322	0.114
